Results deposited as PubChem BioAssay AID743121 (NCATS, 2013).
This is an unselected part of about 26,000 reagents tested. 167 of them (0.63%) count as active. 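Calls are per gene from RSA p-values that are not deposited; an individual active-marked siRNA can sensitise only weakly.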 Entries without a mark were called inactive. Reagents against one gene are numbered here. Not all columns of the deposit are shown.

- Aim: 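Partners whose loss is lethal together with topoisomerase I blockade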 (primary screen)
- Cell system: MDA-MB-231 cells, a human breast cancer line
- Reagents: single siRNA against human genes, 20 nM siRNA (0.8 pmol per well)
- Duration: 120 h (drug added 48 h after transfection, read 72 h later)
- Treatment: camptothecin 20 nM (about EC30) for 72 h; vehicle 0.1% DMSO in parallel plates
- Measured: 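CellTiter-Glo ATP signal, scaled to control siRNA as percent viability; sensitisation given as log2 of untreated divided by camptothecin-treated viability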
- Reading the numbers: log2 vehicle/camptothecin viability: higher = stronger sensitisation to camptothecin; viability with camptothecin: higher = more viable cells
- Call rule: 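Each gene scored by redundant siRNA activity (RSA) over its individual siRNA ratios; a gene is called active at p < 0.001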

Gene | reagent | log2 vehicle/camptothecin viability | viability with camptothecin (% of control)
DAPK3 | 1 | -0.354 | 74.5
DAPK3 | 2 | 0.253 | 84.4
DAPK3 | 3 | -0.619 | 52.7
DAPK3 | 4 | -0.216 | 80.2
HTR1F | 1 | 0.169 | 86.7
HTR1F | 2 | 0.545 | 63.1
HTR1F | 3 | 0.777 | 53.5
HTR1F | 4 | -0.248 | 81.8
OR4C3 | 1 | -0.225 | 99.4
OR4C3 | 2 | -0.379 | 67.6
OR4C3 | 3 | 0.106 | 76.6
OR4C3 | 4 | -0.437 | 120
F11 | 1 | -0.13 | 69.9
F11 | 2 | -0.128 | 94.3
F11 | 3 | -0.19 | 98.8
F11 | 4 | -0.0547 | 93
VARS1 | 1 | -0.522 | 45
VARS1 | 2 | -0.192 | 61.7
VARS1 | 3 | -0.438 | 71.7
FUT1 | 1 | -0.335 | 82.4
FUT1 | 2 | -0.311 | 75
FUT1 | 3 | 0.00822 | 85.4
FUT1 | 4 | -0.0798 | 52.5
SLC9A5 | 1 | -0.182 | 60.8
SLC9A5 | 2 | -0.0135 | 89.4
SLC9A5 | 3 | -0.15 | 93.6
SLC9A5 | 4 | -0.917 | 40.4
EFEMP2 | 1 | -0.358 | 44.8
EFEMP2 | 2 | 0.0444 | 82.5
EFEMP2 | 3 | 0.0172 | 89.4
EFEMP2 | 4 | -0.276 | 100
STC2 | 1 | -0.368 | 46.2
STC2 | 2 | -0.291 | 30.7
STC2 | 3 | -0.0405 | 77
STC2 | 4 | -0.129 | 56.8
AGXT | 1 | 0.00101 | 80.6
AGXT | 2 | 0.162 | 58.7
AGXT | 3 | 1.63 | 25.1
AGXT | 4 | 0.107 | 78.3
SCNN1G | 1 | -0.477 | 77.5
SCNN1G | 2 | 0.103 | 68.1
SCNN1G | 3 | -0.314 | 83.9
BTNL9 | 1 | -0.108 | 90.9
BTNL9 | 2 | -0.228 | 111
BTNL9 | 3 | -0.654 | 85.3
CD247 | 1 | -0.328 | 102
CD247 | 2 | 0.0445 | 59.7
CD247 | 3 | -0.163 | 67.4
CD247 | 4 | -0.265 | 72.3
PC | 1 | -0.226 | 116
PC | 2 | -0.117 | 38.5
PC | 3 | -0.606 | 77.6
PC | 4 | -0.02 | 102
PIM1 | 1 | -0.363 | 63.3
PIM1 | 2 | -0.279 | 111
PIM1 | 3 | -0.415 | 94.1
PIM1 | 4 | -0.559 | 81.2
PPP1CB | 1 | -0.424 | 78
PPP1CB | 2 | 0.396 | 34.6
PPP1CB | 3 | -0.176 | 70.3
PPP1CB | 4 | 0.126 | 31
SDR9C7 | 1 | -0.377 | 73
SDR9C7 | 2 | -0.469 | 108
SDR9C7 | 3 | -0.295 | 88.3
SDR9C7 | 4 | 0.093 | 78.8
NTSR1 | 1 | -0.0176 | 63.4
NTSR1 | 2 | 0.459 | 43.9
NTSR1 | 3 | -0.0255 | 61.3
NTSR1 | 4 | 0.0909 | 58.7
KLK2 | 1 | -0.32 | 55.5
KLK2 | 2 | -0.329 | 30.2
KLK2 | 3 | 0.118 | 65.4
KLK2 | 4 | -0.136 | 41.2
ADAP1 | 1 | -0.0527 | 67.3
ADAP1 | 2 | -0.297 | 85.2
ADAP1 | 3 | 0.241 | 35.8
STYK1 | 1 | 0.944 | 33.2
STYK1 | 2 | -0.399 | 110
STYK1 | 3 | 0.187 | 71
STYK1 | 4 | -0.411 | 108
SCYL2 | 1 | 0.275 | 81.9
SCYL2 | 2 | 0.308 | 57.3
SCYL2 | 3 | -0.056 | 90.7
SCYL2 | 4 | -0.378 | 75.8
SCYL2 | 5 | -0.521 | 103
PTGDR | 1 | -0.0252 | 52.8
PTGDR | 2 | -0.708 | 77.2
PTGDR | 3 | -0.21 | 53.7
PTGDR | 4 | -0.0981 | 82.2

Only “log2 vehicle/camptothecin viability” (13 entries from above):
CD247 #1: -0.328
CD247 #2: 0.0445
CD247 #3: -0.163
CD247 #4: -0.265
PC #1: -0.226
PC #2: -0.117
PC #3: -0.606
PC #4: -0.02
PIM1 #1: -0.363
PIM1 #2: -0.279
PIM1 #3: -0.415
PIM1 #4: -0.559
PPP1CB #1: -0.424
